The values below come from paper PMC9813066.

By UniProt entry, the sequences of proteins in these tests, tags left out.
UniProt P03372: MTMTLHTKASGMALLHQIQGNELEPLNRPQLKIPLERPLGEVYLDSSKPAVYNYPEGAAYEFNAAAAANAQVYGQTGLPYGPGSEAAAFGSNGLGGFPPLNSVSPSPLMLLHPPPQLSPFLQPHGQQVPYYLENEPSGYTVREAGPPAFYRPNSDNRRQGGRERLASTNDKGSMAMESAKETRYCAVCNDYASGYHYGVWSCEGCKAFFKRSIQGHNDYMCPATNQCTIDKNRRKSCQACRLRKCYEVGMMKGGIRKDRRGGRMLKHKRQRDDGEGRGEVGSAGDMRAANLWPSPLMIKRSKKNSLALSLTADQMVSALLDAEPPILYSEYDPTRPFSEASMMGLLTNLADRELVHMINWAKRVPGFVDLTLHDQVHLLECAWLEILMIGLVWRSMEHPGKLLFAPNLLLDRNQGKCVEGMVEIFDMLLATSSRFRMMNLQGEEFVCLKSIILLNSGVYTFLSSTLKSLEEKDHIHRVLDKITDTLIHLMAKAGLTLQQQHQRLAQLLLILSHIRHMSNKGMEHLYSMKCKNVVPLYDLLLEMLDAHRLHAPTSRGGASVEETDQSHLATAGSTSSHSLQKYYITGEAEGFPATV
UniProt Q99496: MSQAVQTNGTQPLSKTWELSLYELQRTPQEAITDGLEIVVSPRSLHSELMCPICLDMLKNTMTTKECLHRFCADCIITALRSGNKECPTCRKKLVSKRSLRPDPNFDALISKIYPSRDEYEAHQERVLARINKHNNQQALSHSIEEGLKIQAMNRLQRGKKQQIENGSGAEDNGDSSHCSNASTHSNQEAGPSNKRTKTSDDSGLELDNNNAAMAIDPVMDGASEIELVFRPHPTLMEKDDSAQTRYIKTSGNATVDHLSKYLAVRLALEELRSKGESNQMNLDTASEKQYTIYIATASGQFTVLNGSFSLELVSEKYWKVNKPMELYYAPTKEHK

Results are given in words; binding and its absence hold for the method and conditions named. In cells and extracts the contact can be indirect. Some entries that bind do so weakly or less than the wild type.

In the test the target is Estrogen receptor α (ERα) (human (endogenous in MCF-7)) (UniProt P03372). In words: co-IP; endogenous proteins; MCF-7 total cell lysate pre-cleared with Protein A + G Agarose and rabbit IgG, immunoprecipitated with anti-ERα (D8H8) 4 h at 4 °C, blotted with anti-RNF2; rabbit IgG as negative control; also in cells treated with vehicle or 10 nM E2.

Turning to “RING finger protein 2 (RNF2) (from UniProt Q99496 1-336)”, the binding entry was “binds”.
